Assay results: PubChem BioAssay AID493014 (National Center for Advancing Translational Sciences (NCATS), 2011)
This is one part of the list. These are further read-outs of the screen, such as a control signal, another cell line or another target. No call is given for them. Compounds called inactive in the main read-out are mostly missing here. Words in brackets tell the shape of the fitted curve; partial curves, single points and poor fits give uncertain potencies.

Experiment: qHTS Assay to Find Inhibitors of Chronic Active B-Cell Receptor Signaling
Conditions: ABC-DLBCL IkBa-CBG/CBR reporter, luminescence ratio (green luciferase fused to IkBa over red control in TMD8 lymphoma cells), 4 h
How it was run: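 TMD8 ABC-DLBCL cells carrying doxycycline-inducible green luciferase fused to IkappaBalpha plus unfused red luciferase were exposed to compounds (up to 46 uM) for 4 hrs at 37C. Activity came from the overlap-corrected green/red luminescence ratio.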

[1] = measured here: CBR red luminescence, cell number
[2] = measured here: IkBa-CBG green luminescence

Structure (SMILES) | AC50 [1] | AC50 [2]
Cn1nnc(NC(=S)NC(=O)c2cccc3c(Cl)cccc23)n1 | 10 µM [rising, partial curve] | –
O=C1NCCN1C(=O)C12CC3CC(CC(C3)C1)C2 | 3.16 µM [falling, partial curve, poor fit] | –
Cc1cc(C(F)F)n2nc(C(=O)Nc3ccc(S(=O)(=O)NC45CC6CC(CC(C6)C4)C5)cc3)nc2n1 | 5.17 µM [falling, full curve, poor fit] | –
Cc1cccc(Nc2nc3ccccc3s2)c1C | 0.92 µM [rising, full curve] | –
Cc1ccc(CN(Cc2ccccc2)C(=S)NCC(=O)NCc2cccnc2)o1 | 35.5 µM [falling, single point] | –
CCOCCCNCC(O)c1ccccc1 (configuration not stated) | 0.731 µM [falling, full curve, poor fit] | –
CCCC(=O)NC(=S)Nc1cc(-c2nc3ncccc3o2)ccc1C | 0.708 µM [rising, full curve, poor fit] | –
O=C(Nc1ccccc1C(F)(F)F)c1cc(-c2ccc(O)cc2)on1 | 10 µM [falling, partial curve, poor fit] | –
O=C(OCCc1cc2ccccc2c(=O)o1)c1cccs1 | 20.6 µM [rising, partial curve, poor fit] | –
Cc1nn2c(-c3ccccn3)ccnc2c1Cl | 6.31 µM [falling, partial curve, poor fit] | –
CCN(CC)S(=O)(=O)c1ccc(N2CCOCC2)c(NC(=O)c2[nH]c(C)c(C(C)=O)c2C)c1 | 4.11 µM [rising, full curve] | 4.11 µM [falling, full curve]
C/C(=N\NC(=O)c1cc(C)[nH]n1)c1cccs1 | 7.08 µM [falling, partial curve] | –
CCCN(CCC)C(=O)C1CCN(c2cc(C)nc3c(-c4ccc(OC)c(OC)c4)c(C)nn23)CC1 | 7.31 µM [rising, partial curve, poor fit] | –
C=CCNc1nc(NCc2ccccc2)c(C#N)c2c1CN(C)CC2 | 3.98 µM [rising, full curve, poor fit] | –
Cc1ccc(C(=O)COC(=O)c2nc3nccc(C)n3n2)c(C)c1 | 18.4 µM [rising, partial curve] | –
C/C=C/C=N/Nc1nc(C)cc(=O)[nH]1 | 12.6 µM [falling, partial curve, poor fit] | –
CCCc1cc(=O)oc2c3c(cc(OCC(=O)N[C@@H](CSC)C(=O)O)c12)OC(C)(C)CC3 | 15.8 µM [rising, partial curve, poor fit] | –
O=C(O)CC1(c2ccccc2)C(=O)c2ccccc2C1=O | 35.5 µM [falling, single point] | –
CSc1nc(C)c(C(=O)C[n+]2ccc(C)cc2)cc1C#N | 3.55 µM [falling, full curve, poor fit] | –
Cc1c(/N=C(\[O-])Nc2ccc(Br)cc2)sn[n+]1C | 5.62 µM [falling, full curve, poor fit] | –

12 entries out of the list, sorted by count of non-hydrogen atoms, smallest number first.
Structure (SMILES) | AC50 [1] | AC50 [2]
C/C=C/C=N/Nc1nc(C)cc(=O)[nH]1 | 12.6 µM [falling, partial curve, poor fit] | –
CCOCCCNCC(O)c1ccccc1 (configuration not stated) | 0.731 µM [falling, full curve, poor fit] | –
Cc1nn2c(-c3ccccn3)ccnc2c1Cl | 6.31 µM [falling, partial curve, poor fit] | –
Cc1cccc(Nc2nc3ccccc3s2)c1C | 0.92 µM [rising, full curve] | –
O=C(OCCc1cc2ccccc2c(=O)o1)c1cccs1 | 20.6 µM [rising, partial curve, poor fit] | –
Cn1nnc(NC(=S)NC(=O)c2cccc3c(Cl)cccc23)n1 | 10 µM [rising, partial curve] | –
Cc1ccc(C(=O)COC(=O)c2nc3nccc(C)n3n2)c(C)c1 | 18.4 µM [rising, partial curve] | –
C=CCNc1nc(NCc2ccccc2)c(C#N)c2c1CN(C)CC2 | 3.98 µM [rising, full curve, poor fit] | –
Cc1ccc(CN(Cc2ccccc2)C(=S)NCC(=O)NCc2cccnc2)o1 | 35.5 µM [falling, single point] | –
CCCc1cc(=O)oc2c3c(cc(OCC(=O)N[C@@H](CSC)C(=O)O)c12)OC(C)(C)CC3 | 15.8 µM [rising, partial curve, poor fit] | –
CCN(CC)S(=O)(=O)c1ccc(N2CCOCC2)c(NC(=O)c2[nH]c(C)c(C(C)=O)c2C)c1 | 4.11 µM [rising, full curve] | 4.11 µM [falling, full curve]
Cc1cc(C(F)F)n2nc(C(=O)Nc3ccc(S(=O)(=O)NC45CC6CC(CC(C6)C4)C5)cc3)nc2n1 | 5.17 µM [falling, full curve, poor fit] | –

Carrying on:

Structure (SMILES) | AC50 [1] | AC50 [2]
CCOc1ccc(-n2cc(-c3ccccc3)c3c(NC4CCCCC4)ncnc32)cc1 | 10 µM [rising, partial curve, poor fit] | –
Nc1nc(Nc2ccccc2F)nc(NCCO)c1[N+](=O)[O-] | 6.31 µM [falling, single point] | –
Cc1cc(C)cc(N(CC(=O)NCc2ccco2)S(=O)(=O)c2ccccc2)c1 | 35.5 µM [falling, single point] | –
CC(=O)N(CCC(c1ccco1)C(C)C)Cc1ccc(OC(C)C)cc1 (configuration not stated) | 35.5 µM [falling, single point] | –
O=C(c1ccc(S(=O)(=O)N2CCCCC2)cc1)N1CCN(c2ccccc2F)CC1 | 29.1 µM [falling, partial curve, poor fit] | –
O=C(CSC(=S)N1CCCCC1)Nc1ncc2c(n1)CCCC2=O | 3.98 µM [falling, single point] | –
COC(=O)c1ccc(NC(=O)C2CCCN(S(=O)(=O)c3cnc[nH]3)C2)cc1 (configuration not stated) | 25.9 µM [falling, partial curve, poor fit] | –
O=C(CCCCN1CCCCC1)c1ccc2c(c1)Cc1ccccc1-2 | 3.55 µM [falling, partial curve, poor fit] | –
Cc1ccc(C(=O)NCc2cccnc2)o1 | 6.31 µM [rising, single point] | –
COc1cccc(NC(=O)CSc2nc(=O)n(Cc3ccccn3)c3c2CCC3)c1 | 35.5 µM [falling, single point] | 5.62 µM [rising, partial curve, poor fit]
CCOC(=O)c1sc(NC(=O)c2cncc(Br)c2)nc1C | 0.00517 µM [falling, full curve, poor fit] | –
O=C(CSc1ncnc2sccc12)Nc1ccccc1F | 11.2 µM [falling, partial curve] | –
COc1ccccc1NC(=O)CN(Cc1ccco1)C(=O)c1ccc(N2CCCC2=O)cc1 | 20.6 µM [rising, partial curve] | –
COc1cccc(NC(=O)c2ccc3c(c2)N(C)CCS3)c1 | 3.55 µM [falling, partial curve, poor fit] | –
O=C(Nc1nc2c(s1)CCCC2)c1ccc(Br)o1 | 10 µM [falling, partial curve, poor fit] | –
O=C(Nc1nnc(SCc2ccc(F)cc2)s1)c1ccco1 | 0.82 µM [rising, partial curve, poor fit] | –
O=C1C(Cc2ccccc2)Nc2ncnc(N3CCc4ccccc4C3)c2N1Cc1ccc(Br)cc1 (configuration not stated) | 29.1 µM [falling, single point] | –
O=C(Nc1ccc(Cl)cc1)Nc1nnc(CSCc2ccccc2Cl)s1 | 29.1 µM [rising, partial curve, poor fit] | –
C/C=C/c1ccc(OCC(=O)OCC)c(OC)c1 | 12.6 µM [rising, partial curve, poor fit] | –
Cc1ccc(NC(=O)Nc2ccc(Cl)c(Cl)c2)nc1 | 3.55 µM [rising, partial curve, poor fit] | –
